Data reported in publication PMC12609774.
Results are given in words; binding and its absence hold for the method and conditions named. In cells and extracts the contact can be indirect.

Protein sequences, listed by entry. Tags and fused reporters are not part of them.
UniProt O00327: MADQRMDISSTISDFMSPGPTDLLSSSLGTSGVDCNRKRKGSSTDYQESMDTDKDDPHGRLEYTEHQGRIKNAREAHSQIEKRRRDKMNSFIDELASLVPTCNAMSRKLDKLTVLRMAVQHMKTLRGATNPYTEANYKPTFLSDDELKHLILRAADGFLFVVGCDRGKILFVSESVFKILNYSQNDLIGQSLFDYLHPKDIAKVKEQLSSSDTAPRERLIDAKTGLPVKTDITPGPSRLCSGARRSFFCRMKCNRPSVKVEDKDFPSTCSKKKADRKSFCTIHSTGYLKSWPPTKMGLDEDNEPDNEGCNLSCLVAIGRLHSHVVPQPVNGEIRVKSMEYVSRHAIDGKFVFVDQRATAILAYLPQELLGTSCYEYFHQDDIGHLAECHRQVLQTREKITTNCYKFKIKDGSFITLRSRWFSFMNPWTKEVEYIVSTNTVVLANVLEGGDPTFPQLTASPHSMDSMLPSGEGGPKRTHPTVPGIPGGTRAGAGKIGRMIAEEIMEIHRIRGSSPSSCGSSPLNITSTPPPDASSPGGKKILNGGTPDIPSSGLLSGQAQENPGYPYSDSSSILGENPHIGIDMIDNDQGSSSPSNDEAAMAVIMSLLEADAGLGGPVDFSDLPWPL

Biological target: brain and muscle ARNT-Like 1 (BMAL1) (human (endogenous in MCF7)) (UniProt O00327)
Assay: co-IP; MCF7 cell lysate (buffer with protease and phosphatase inhibitors); anti-BMAL1 antibody or IgG control with Protein A/G PLUS agarose beads, overnight; Western blot of the immunoprecipitates

B1: Aldehyde dehydrogenase 3A1 (ALDH3A1) (enzyme, UniProt P30838 1-453)
chain: MSKISEAVKRARAAFSSGRTRPLQFRIQQLEALQRLIQEQEQELVGALAADLHKNEWNAYYEEVVYVLEEIEYMIQKLPEWAADEPVEKTPQTQQDELYIHSEPLGVVLVIGTWNYPFNLTIQPMVGAIAAGNSVVLKPSELSENMASLLATIIPQYLDKDLYPVINGGVPETTELLKERFDHILYTGSTGVGKIIMTAAAKHLTPVTLELGGKSPCYVDKNCDLDVACRRIAWGKFMNSGQTCVAPDYILCDPSIQNQIVEKLKKSLKEFYGEDAKKSRDYGRIISARHFQRVMGLIEGQKVAYGGTGDAATRYIAPTILTDVDPQSPVMQEEIFGPVLPIVCVRSLEEAIQFINQREKPLALYMFSSNDKVIKKMIAETSSGGVAANDVIVHITLHSLPFGGVGNSGMGSYHGKKSFETFSHRRSCLVRPLMNDEGLKVRYPPSPAKMTQH
- binding: no binding
